This series deals with sham and CHF rats (coronary artery ligation). In words: Hemodynamic, morphological and echocardiographic measurements in sham and CHF rats. In kind it is in vivo, rat. As to conditions: mean ± SE. The method, then:
In order to desensitize cardiac sympathetic afferents in rats, resiniferatoxin (RTX, 1 mg; Sigma Aldrich) was dissolved in 2 ml of ethanol and mixed with 18 ml of Tween in isotonic saline. RTX (50 μg/ml) was applied twice on the entire left and right ventricles with a swab just prior to coronary ligation. The dose of RTX was determined by preliminary experiments in which we found nearly complete ablation of TRPV1-expressing cardiac nerve endings on the surface of the rat heart for more than 10 weeks. Rat surgery was performed 9-11 weeks post-MI. Rats were anesthetized with urethane (800 mg/kg ip) and α-chloralose (40 mg/kg ip). Renal sympathetic nerve activity (RSNA) and cardiac sympathetic nerve activity (CSNA) were recorded for evaluating basal renal and cardiac sympathetic tone.
More specifically, we examined TRPV1 protein expression in cardiac nerve endings from vehicle and RTX-treated rats using immunofluorescence. Experiments were performed on male Sprague-Dawley rats weighing −400 to −500 g. […] Cardiac function in all experimental animals was measured 2 and 6 weeks after MI by echocardiography (VEVO 770, Visual Sonics, Inc.) as described in (Wang et al., J. Appl. Physiol. 2010; 108:1365-1375; Wang et al. 2, Am. J. Physiol. Regul. Integr. Comp. Physiol. 2012; 320:R1260-R1270; and Wang et al. 3, J. Physiol. 2010; 588:5033-5047). […]

Consider `C=C(C)[C@]12C[C@@H](C)[C@@]34O[C@](Cc5ccccc5)(O[C@@H]1[C@@H]3C=C(COC(=O)Cc1ccc(O)c(OC)c1)C[C@]1(O)C(=O)C(C)=C[C@@H]41)O2` [RTX, resiniferatoxin], for which the Body weight (CHF + RTX (n = 25), epicardial RTX 50 μg/ml at coronary ligation, 9-11 weeks post-MI) is reported as 440 ± 8 g and the Body weight (Sham + RTX (n = 20), epicardial RTX 50 μg/ml, 9-11 weeks) was 430 ± 7 g.
